Patent publication US20040001818A1, “Methods of inhibiting angiogenesis using NADPH oxidase inhibitors” (priority 2000, published 2004)
For at least one compound, name, drawing or mass did not settle the structure.

Tested on: MnSOD mRNA
Assay: Northern blot of MnSOD mRNA in HCAECs
Assay type: cell-based, human
Conditions: HCAEC; for basal expression of MnSOD: absence of VEGF, 20 μM LY294002 or 100 nM wortmannin
Protocol: Cell culture. Human coronary artery endothelial cells (HCAECs) (Clonetics Corporation, San Diego, Calif., USA) and human pulmonary artery endothelial cells (HPAECs) were grown in Endothelial Growth Medium-2-MV (EGM-2-MV) BulletKit (Clonetics Corporation, San Diego, Calif., USA). At 80-90% confluence, the cells were serum-starved in DMEM containing 0.5% FBS for 24 hours and subsequently treated with VEGF-supplemented medium for the times indicated. Human recombinant VEGF was purchased from PeproTech, Inc. (Rocky Hill, N.J., USA). […] In other studies, the serum-starved cells were pretreated with the MEK inhibitor PD98059 at a final concentration of 50 μM or a specific PKC inhibitor bisindolylmaleimide I (BIM; CalBiochem, San Diego, Calif., USA) at a final concentration of 5 μM for 30 minutes prior to addition of growth factors. An equal amount of DMSO was added to the control plates. Northern blot analyses. Ten micrograms total RNA was loaded on a 0.7% formaldehyde-containing agarose gel. The RNA was transferred to nylon membrane, covalently cross-linked with UV radiation, prehybridized for 6 hours, and hybridized for 18 hours at 42° C. with a [^32P]dCTP-labeled cDNA probe containing MnSOD or eNOS cDNA sequence. The membranes were subsequently stripped and probed with a radiolabeled 18S-ribosome probe. For actinomycin D experiments, HCAEC cells were pretreated with 10 μg/ml actinomycin D (Sigma Chemical Company, St. Louis, Mo., USA) for 30 minutes before addition of VEGF and were harvested for total RNA one hour later.
To determine whether VEGF induced expression of MnSOD in primary endothelial cell cultures, HCAECs and HPAECs were serum starved for 24 hours, treated with 40 ng/ml VEGF for 0, 0.5, 1, 2, 4, 12 and 24 hours, and then harvested for total RNA. Northern blots were performed and probed for human MnSOD. […] The membranes were then stripped and reprobed for eNOS. […]

Structure (SMILES)	basal expression of MnSOD	VEGF-mediated MnSOD mRNA expression under PI3K inhibition (presence of VEGF (50 ng/ml, 4 hr), LY294002 20 μM, 30 min pretreatment)
O=c1cc(N2CCOCC2)oc2c(-c3ccccc3)cccc12 [LY294002]	increased	upregulates
COC[C@H]1OC(=O)c2coc3c2[C@@]1(C)C1=C(C3=O)[C@@H]2CCC(=O)[C@@]2(C)C[C@H]1OC(C)=O [wortmannin]	increased	
